Results deposited as PubChem BioAssay AID1259308 (NCATS, 2017)
Shown is a random part of about 59,000 deposited reagents. Over the whole deposit, about 1,510 (2.6%) got an active call. 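Calls use total luciferase alone and ignore viability, so some active siRNAs may act by altering cell number.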 Reagents against one gene are numbered here. Not all columns of the deposit are shown.

Aim: 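Candidate targets for better recombinant protein yield in mammalian cells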 (primary screen)
Cell system: human HEK293 embryonic kidney cells stably expressing firefly luciferase (HEK-CMV-Luc2-Hygro)
Reagent: single siRNA against human genes, 0.8 pmol siRNA per well
Time to read-out: 72 h
Read-out: 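Luciferase light (ONE-Glo) measured on one replicate plate set and viability (CellTiter-Glo) on the other, scaled to a negative control siRNA, with robust z-scores and luciferase per cell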
Reading the numbers: total luciferase, z-score and total luciferase, % of control: higher = more reporter protein produced; luciferase per cell, z-score: higher = more reporter output per viable cell
Call rule: 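An siRNA counts as active if its total luciferase robust z-score exceeds 3; genes with two or more such siRNAs out of three were retested with fresh siRNAs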
Meaning of the calls: active = raised luciferase; inactive = no rise

target | reagent | total luciferase, z-score | total luciferase, % of control | luciferase per cell, z-score | Outcome
KLF15 (GeneID 28999) | 1 | 1.31 | 108 | 1.01 | inactive
KLF15 (GeneID 28999) | 2 | 0.997 | 102 | 0.563 | inactive
KLF15 (GeneID 28999) | 3 | 1.43 | 110 | 1.28 | inactive
C1orf52 (GeneID 148423) | 1 | -1.23 | 57.4 | -0.746 | inactive
C1orf52 (GeneID 148423) | 2 | -0.192 | 78.1 | 0.468 | inactive
C1orf52 (GeneID 148423) | 3 | 0.374 | 89.3 | 0.662 | inactive
STK4 (GeneID 6789) | 1 | 0.0692 | 83.3 | 0.455 | inactive
STK4 (GeneID 6789) | 2 | -0.684 | 68.3 | -0.565 | inactive
STK4 (GeneID 6789) | 3 | -0.71 | 67.8 | -0.288 | inactive
FGB (GeneID 2244) | 1 | -0.957 | 62.8 | -0.871 | inactive
FGB (GeneID 2244) | 2 | 3.45 | 150 | 2.65 | active
FGB (GeneID 2244) | 3 | 0.0356 | 82.6 | -0.382 | inactive
DNAAF1 (GeneID 123872) | 1 | -0.0801 | 80.3 | 0.173 | inactive
DNAAF1 (GeneID 123872) | 2 | -0.995 | 62.1 | -0.565 | inactive
DNAAF1 (GeneID 123872) | 3 | 0.436 | 90.6 | -0.424 | inactive
RPL37AP8 (GeneID 644338) | 1 | -0.519 | 71.6 | -0.263 | inactive
RPL37AP8 (GeneID 644338) | 2 | 0.0882 | 83.6 | 0.557 | inactive
RPL37AP8 (GeneID 644338) | 3 | 1.04 | 103 | 0.524 | inactive
FZD8 (GeneID 8325) | 1 | 0.331 | 88.5 | 0.39 | inactive
FZD8 (GeneID 8325) | 2 | -0.0191 | 81.5 | 0.396 | inactive
FZD8 (GeneID 8325) | 3 | -2.03 | 41.5 | -2.73 | inactive
DRICH1 (GeneID 51233) | 1 | -0.466 | 72.6 | -0.796 | inactive
DRICH1 (GeneID 51233) | 2 | -0.297 | 76 | -0.311 | inactive
DRICH1 (GeneID 51233) | 3 | -0.726 | 67.4 | -1.29 | inactive
ANKRD1 (GeneID 27063) | 1 | 0.83 | 98.4 | 0.614 | inactive
ANKRD1 (GeneID 27063) | 2 | 6.65 | 214 | 4.04 | active
ANKRD1 (GeneID 27063) | 3 | -1.1 | 60 | -0.373 | inactive
TAS2R43 (GeneID 259289) | 1 | -1.06 | 60.9 | -1.13 | inactive
TAS2R43 (GeneID 259289) | 2 | -0.777 | 66.4 | -0.565 | inactive
TAS2R43 (GeneID 259289) | 3 | 0.428 | 90.4 | 0.605 | inactive
RNF139 (GeneID 11236) | 1 | 0.439 | 90.6 | 0.0923 | inactive
RNF139 (GeneID 11236) | 2 | -0.445 | 73 | -0.691 | inactive
RNF139 (GeneID 11236) | 3 | -0.78 | 66.4 | 0.0376 | inactive
MARCHF4 (GeneID 57574) | 1 | 0.164 | 85.1 | -0.374 | inactive
MARCHF4 (GeneID 57574) | 2 | -1.01 | 61.9 | -0.408 | inactive
MARCHF4 (GeneID 57574) | 3 | 0.648 | 94.8 | 0.577 | inactive
IFIT5 (GeneID 24138) | 1 | -1.11 | 59.9 | -1.09 | inactive
IFIT5 (GeneID 24138) | 2 | 1.51 | 112 | 1.42 | inactive
IFIT5 (GeneID 24138) | 3 | 2.68 | 135 | 3.41 | inactive
CMTR1 (GeneID 23070) | 1 | -0.162 | 78.7 | -0.141 | inactive
CMTR1 (GeneID 23070) | 2 | 0.135 | 84.6 | 0.0788 | inactive
CMTR1 (GeneID 23070) | 3 | -0.583 | 70.3 | -0.799 | inactive
ITGB2 (GeneID 3689) | 1 | -0.0848 | 80.2 | -0.763 | inactive
ITGB2 (GeneID 3689) | 2 | 0.155 | 85 | 0.809 | inactive
ITGB2 (GeneID 3689) | 3 | -0.173 | 78.4 | 0.242 | inactive
ALDH4A1 (GeneID 8659) | 1 | -0.618 | 69.6 | -0.68 | inactive
ALDH4A1 (GeneID 8659) | 2 | -2.03 | 41.4 | -2.09 | inactive
ALDH4A1 (GeneID 8659) | 3 | 0.67 | 95.2 | 0.631 | inactive
WNT5A (GeneID 7474) | 1 | -1.18 | 58.5 | -1.46 | inactive
WNT5A (GeneID 7474) | 2 | -1.3 | 56 | -0.656 | inactive
WNT5A (GeneID 7474) | 3 | 0.0206 | 82.3 | -0.169 | inactive
MRPL15 (GeneID 29088) | 1 | -0.226 | 77.4 | -0.856 | inactive
MRPL15 (GeneID 29088) | 2 | 1.28 | 107 | 1.31 | inactive
MRPL15 (GeneID 29088) | 3 | 1.45 | 111 | 0.817 | inactive
MAP3K19 (GeneID 80122) | 1 | 2.24 | 127 | 1.89 | inactive
MAP3K19 (GeneID 80122) | 2 | -0.0472 | 80.9 | 0.0739 | inactive
MAP3K19 (GeneID 80122) | 3 | -0.504 | 71.9 | -1.47 | inactive
SENP3 (GeneID 26168) | 1 | 1.59 | 114 | 1.75 | inactive
SENP3 (GeneID 26168) | 2 | -0.388 | 74.2 | -1.17 | inactive
SENP3 (GeneID 26168) | 3 | -0.177 | 78.4 | -0.205 | inactive
PGRMC2 (GeneID 10424) | 1 | 1.29 | 108 | 1.13 | inactive
PGRMC2 (GeneID 10424) | 2 | 0.983 | 101 | 0.6 | inactive
PGRMC2 (GeneID 10424) | 3 | 0.162 | 85.1 | 0.0266 | inactive
TOX4 (GeneID 9878) | 1 | 0.717 | 96.1 | -0.0585 | inactive
TOX4 (GeneID 9878) | 2 | 0.337 | 88.6 | 1.18 | inactive
TOX4 (GeneID 9878) | 3 | -0.776 | 66.4 | -1.35 | inactive
BCL9 (GeneID 607) | 1 | 0.909 | 100 | 0.486 | inactive
BCL9 (GeneID 607) | 2 | -2.77 | 26.7 | -3.37 | inactive
BCL9 (GeneID 607) | 3 | -0.403 | 73.9 | -0.623 | inactive
PARD3B (GeneID 117583) | 1 | -0.658 | 68.8 | -0.608 | inactive
PARD3B (GeneID 117583) | 2 | -0.683 | 68.3 | -0.92 | inactive
PARD3B (GeneID 117583) | 3 | 1.77 | 117 | 0.902 | inactive
ZDHHC22 (GeneID 283576) | 1 | 1.05 | 103 | 1.25 | inactive
ZDHHC22 (GeneID 283576) | 2 | 0.16 | 85.1 | 0.427 | inactive
ZDHHC22 (GeneID 283576) | 3 | 0.434 | 90.5 | 1.52 | inactive

3 entries already listed, arranged by “total luciferase, z-score”, lowest first:
target | reagent | total luciferase, z-score | total luciferase, % of control | luciferase per cell, z-score | Outcome
DRICH1 (GeneID 51233) | 3 | -0.726 | 67.4 | -1.29 | inactive
ANKRD1 (GeneID 27063) | 1 | 0.83 | 98.4 | 0.614 | inactive
ANKRD1 (GeneID 27063) | 2 | 6.65 | 214 | 4.04 | active
